# Measurements from patent US20070041901.
# Chains of the proteins cited; added tags and fusions are not shown. Lines headed by an entry give the natural chain unless they say otherwise; changes in a name come on top.
# UniProt Q04609: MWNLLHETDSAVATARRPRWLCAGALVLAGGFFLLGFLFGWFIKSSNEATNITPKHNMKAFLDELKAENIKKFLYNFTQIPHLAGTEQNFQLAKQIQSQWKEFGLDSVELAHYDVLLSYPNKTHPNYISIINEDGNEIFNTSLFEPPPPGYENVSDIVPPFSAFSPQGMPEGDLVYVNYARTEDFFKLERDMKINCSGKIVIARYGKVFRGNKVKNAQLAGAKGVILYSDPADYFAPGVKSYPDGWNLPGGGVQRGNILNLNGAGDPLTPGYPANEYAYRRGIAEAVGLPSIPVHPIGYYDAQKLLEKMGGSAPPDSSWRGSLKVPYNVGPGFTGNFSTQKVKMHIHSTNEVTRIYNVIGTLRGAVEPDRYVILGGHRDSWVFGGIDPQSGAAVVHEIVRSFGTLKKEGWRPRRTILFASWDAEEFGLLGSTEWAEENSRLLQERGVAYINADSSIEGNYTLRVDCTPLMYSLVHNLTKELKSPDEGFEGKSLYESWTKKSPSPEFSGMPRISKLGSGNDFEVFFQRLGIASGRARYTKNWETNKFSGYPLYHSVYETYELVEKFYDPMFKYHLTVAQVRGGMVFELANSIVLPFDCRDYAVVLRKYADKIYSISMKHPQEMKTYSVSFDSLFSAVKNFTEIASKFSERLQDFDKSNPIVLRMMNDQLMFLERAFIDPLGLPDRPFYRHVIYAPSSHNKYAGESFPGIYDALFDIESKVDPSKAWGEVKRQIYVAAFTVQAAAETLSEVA
# Tests used:
# [1] = molecular target: PSMA (endogenous, LNCaP cells) (Homo sapiens) (UniProt Q04609); assay: flow cytometry; details: 2'-F C and U, protein on the cell surface
# [2] = molecular target: PSMA (prostate-specific membrane antigen) extracellular domain (Homo sapiens) (UniProt Q04609); assay: inhibition of the protein; details: ribo-free: 2'-OMe, 2'-F, 2'-deoxy, one 2'-deoxy phosphorothioate (U-s-dG); 3'-inverted dT, positions as printed; retained full NAALADase inhibition activity relative to unmodified ARC591; purified recombinant protein; variant of ARC591; dose not given here
# [3] = molecular target: PSMA (endogenous, LNCaP cells) (Homo sapiens) (UniProt Q04609); assay: activity in cells; details: 2'-OMe A, C, U; 2'-OH G; vinblastine hydrazide; no LNCaP killing over entire concentration range; protein on the cell surface; variant of ARC725; dose not given here
# [4] = molecular target: PSMA (endogenous, LNCaP cells) (Homo sapiens) (UniProt Q04609); assay: competition with a labelled probe; details: 3'-inverted dT, competes with fluorescent anti-PSMA antibody on LNCaP cells (FACS), protein on the cell surface, label: 5'-C6-FAM, variant of A9 (xPSM-A9)
sequence,measurement,setting,value
GGAGGACCGAAAAAGACCUGACUUCUAUACUAAGUCUACGUUCCUCCA [ARC591],binding result,"[1]; 2'-OH A and G, variant of A9 (xPSM-A9)",binds
CGGACCGAACAAGGCCUGACUUCUAUACUAAGCCUACGUUCCG [ARC1725],functional effect of the aptamer,[2],active
GGGAGGACGAUGCGGACCGAAAAAGACCUGACUUCUAUACUAAGUCUACGUUCCCAGACGACUCGCCCGA [A9 (xPSM-A9)],binding result,"[1]; 2'-OH A and G (rRfY), binds LNCaP (PSMA+), not PC-3 (PSMA-), competed by anti-PSMA antibody, label: fluorescent",binds
CUACUACACAUGGGUCGGGUGAGUGGCAAAGGAAUAGUAG [ARC725-vinblastine conjugate],functional effect of the aptamer,[3],not active
GGAGGACCGAAAAAGACCUGACUUCUAUACUAAGUCUACGUUCCUCC [ARC710],binding result,"[4]; 2'-F C and U, 2'-OH A and G",binds
CGGACCGAAAAAGACCUGACUUCUAUACUAAGUCUACGUUCCG [ARC711],binding result,"[4]; 2'-F, 2'-OMe and 2'-OH as printed (mCmGmGmAfCfCmGAAAAmAmGmAmCfCfUGAfCfUfUfCfUAfUAfCfUAAmGmUmCmUAfCmGfUmUmCmCmG-3T)",binds

# For part of these data: A negative result means that nothing was seen under these conditions. For part of these data: Where cells or extracts were used, other partners may take part.
